We go through 23 sequences from PMC7819943, “Rice protein-binding microarrays: a tool to detect cis-acting elements near promoter regions in rice”.

By UniProt entry, the sequences of proteins in these tests, tags left out.
UniProt Q0JBA9, entry or part of it: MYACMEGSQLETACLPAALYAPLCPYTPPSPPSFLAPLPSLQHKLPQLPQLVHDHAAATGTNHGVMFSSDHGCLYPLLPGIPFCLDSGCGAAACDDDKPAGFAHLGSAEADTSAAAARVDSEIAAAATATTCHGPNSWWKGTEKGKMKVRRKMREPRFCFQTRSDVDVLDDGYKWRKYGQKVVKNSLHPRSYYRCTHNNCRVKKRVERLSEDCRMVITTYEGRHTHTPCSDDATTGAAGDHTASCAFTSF

Some of the results follow.

For the assay, the target named is OsWRKY34 (Oryza sativa, UniProt Q0JBA9 1-250). The assay can be described thus: protein-binding microarray (RPBM); PBS, 2% BSA, 51.3 ng/ul salmon testes DNA, 50 uM zinc acetate, 200 nM TF, 25 C, 1 h; high values mean tight binding. The settings on record: protein: recombinant; tags: N-terminal polyhistidine and DsRed monomer fusion (pET32a); label: CyDye5-dUTP incorporated in the synthesized complementary strand; 3' TTTTT single-stranded linker to array surface; dsDNA, one strand shown. The procedure, abridged: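 Binding signal here means per-feature fluorescence intensity in arbitrary units. The values were read on an Axon 4000B scanner after a custom Agilent array, double-stranded by primer extension with Cy5-dUTP, was incubated with 200 nM protein at 25 °C for 1 h in PBS with 2% BSA, salmon testes DNA and 50 µM zinc acetate, then washed. The proteins were transcription factors with an N-terminal polyhistidine tag and DsRed, expressed in E. coli BL21-CodonPlus and purified on Ni–NTA.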
In the case of “CTCGCATAATCTTGTATCCCTCATCTCAGATTATCATCACCGGAGTCACCTAGTGCAG”, the binding signal is 9130 fluorescence intensity (a.u.). For “CTATCGGAGAATTGGGTATATCTTTTCTTTTACGCTTATACGGAGTCACCTAGTGCAG”, the binding signal is 8150 fluorescence intensity (a.u.). Turning to “TTTTTATATGATATGTGCATCGAATCGTTTCACCTTTCTTCGGAGTCACCTAGTGCAG”, the binding signal is 8460 fluorescence intensity (a.u.). For the sequence “GTGGGGTCGTGCATGCAGTTATCACATCCATCCATTGATCCGGAGTCACCTAGTGCAG”, the binding signal was 15000 fluorescence intensity (a.u.).

Turning to “ACTTTTTTTTTTGGGATGCTTCTCTTCTTCCCTGGGTATCCGGAGTCACCTAGTGCAG”, the binding signal is 9710 fluorescence intensity (a.u.). On to “GTGTGAGATCCATTTGTCACTTACACACCCTCTTTCTCTTCGGAGTCACCTAGTGCAG”, for which the binding signal was 8620 fluorescence intensity (a.u.). As for “CGATCCACCTCGTCCATAGCAGCCTCGCATCCGAACCCGACGGAGTCACCTAGTGCAG”, the binding signal was 11300 fluorescence intensity (a.u.).

On to “CAACACTCACCTCACCATCATCTCTTCTCCTCGTGCTCGTCGGAGTCACCTAGTGCAG”, for which the binding signal is 8860 fluorescence intensity (a.u.). For the sequence “TTTAACATGATGTGACGGCGGTGTGTTTTTCTGCCATTTTCGGAGTCACCTAGTGCAG”, the binding signal is 10700 fluorescence intensity (a.u.). For the sequence “CCTAACCTCTGATCACATAACCAACCATGCCGGCCACTTCCGGAGTCACCTAGTGCAG”, the binding signal was 10600 fluorescence intensity (a.u.). Next, “ATGATATTTGTGGTTGGGTTTACTCTAGCGGTTTTATTTACGGAGTCACCTAGTGCAG”: 9100 fluorescence intensity (a.u.); “GTATCCAACGTTTGACCGTCCGTTTTATTTGAAAAATTTACGGAGTCACCTAGTGCAG”: 11100 fluorescence intensity (a.u.). For “TATATGCGAGTGTTTTGCAGTTTTACTGTATTTATATATACGGAGTCACCTAGTGCAG” the value was 8180 fluorescence intensity (a.u.); for “AGCCGCTTGGCCACCCCTCGCCACCTGGTCATCGCTGCCGCGGAGTCACCTAGTGCAG”, 8760 fluorescence intensity (a.u.). Turning to “TTGCATTTGACTCTTACCTCTAACTAACAATAGTTCTAACCGGAGTCACCTAGTGCAG”, the binding signal is 11200 fluorescence intensity (a.u.). Next, “ATTGTGTAGTGGTATTGGTTATAATTTTCACCTTCGTCTCCGGAGTCACCTAGTGCAG”: 8170 fluorescence intensity (a.u.).

With “ATTACCAACCTTGCATCGTGCCGTGAATCATATAGGTTTCCGGAGTCACCTAGTGCAG”, the binding signal was 8680 fluorescence intensity (a.u.). As for “GTGGGTGTTTCTTTGGGTTCTTCTAGCTCTGACATTACAACGGAGTCACCTAGTGCAG”, the binding signal is 11200 fluorescence intensity (a.u.). As to “CAAACTGTCCAATTAGGCCCATTTACAAATTCACAAATATCGGAGTCACCTAGTGCAG”, the binding signal was 8260 fluorescence intensity (a.u.).

“AAAATGTTTGACACCGTTGACTTTTTAGCATATGTTTGACCGGAGTCACCTAGTGCAG”: the binding signal was 30800 fluorescence intensity (a.u.). For “TCCACCCACGTCGTCGATCTCGTCCACTCCAATTACATCCCGGAGTCACCTAGTGCAG” the value was 8840 fluorescence intensity (a.u.); for “AAACCATTTGTTGACTCTATAACCACGATCTCTCTTCTGCCGGAGTCACCTAGTGCAG”, 9190 fluorescence intensity (a.u.).

As to “AAGGTGGTGGGGCAGGTGGAGCGGGTGGTCGGGGCGACGCCGGAGTCACCTAGTGCAG”, the binding signal is 11300 fluorescence intensity (a.u.).
